Data set [1] is described as follows: general procedure: Fmoc solid-phase peptide synthesis; Rink amide resin; Rink amide MBHA resin. The settings on record: whole synthesis; for crude mass: TFA salt.
Data set [2] can be described thus: general procedure: Fmoc solid-phase peptide synthesis; SynPhase lantern. To be noted: whole synthesis, analytical RP-HPLC (UV 214), formic acid salt (crude: TFA salt).
A short description of data set [3]: general procedure: Fmoc solid-phase peptide synthesis; polystyrene Rink amide lantern. To be noted: whole synthesis, UV 214, formic acid salt (crude: TFA salt).
A short description of data set [4]: general procedure: Fmoc solid-phase peptide synthesis; Rink amide MBHA resin. The settings on record: whole synthesis, analytical RP-HPLC (UV 214), formic acid salt (crude: TFA salt); run 1.
Data set [5] can be described thus: general procedure: Fmoc solid-phase peptide synthesis; Rink-amide SynPhase lantern. To be noted: whole synthesis, analytical RP-HPLC (UV 214), formic acid salt (crude: TFA salt); run 1.
Setting [6] is: UV 214, formic acid salt (crude: TFA salt), cyclic, sequence written open.
The mark [7] stands for this setting: formic acid salt (crude: TFA salt), cyclic, sequence written open.
Where [8] appears, read: 214 nm, formic acid salt (crude: TFA salt), cyclic, sequence written open.
Where [9] appears, read: 214 nm, formic acid salt (crude: TFA salt).
Where [10] appears, read: formic acid salt (crude: TFA salt).
The mark [11] stands for this setting: on resin and lantern loading, formic acid salt (crude: TFA salt).
[12] abbreviates: UV 214, formic acid salt (crude: TFA salt).

Consider “D-Arg-D-Tyr-D-Thr-(R)-Agl-D-Glu-D-Leu-D-Ala-NH2”, for which, in data set [1] (setting [6]), the “crude HPLC purity” value was found to be 50% and the “final HPLC purity” value is recorded as greater than 99%. In addition, in data set [1] (setting [7]), the difficulty met result is recorded as “measurable amounts of products resulting from incomplete lactamization were observed” and the isolated yield is given as 11%.
With His-D-Trp-Ala-Trp-(R)-Bgl-Lys-NH2, in data set [1] (setting [8]), the “crude HPLC purity” value is 60% and the “final HPLC purity” value is given as greater than 99%. In data set [1] (setting [7]), the isolated yield is listed as 3%.
For “D-Arg-D-Tyr-D-Thr-D-Val-D-Glu-(S)-Bgl-D-Leu-D-Ala-NH2”, in data set [1] (setting [9]), the “crude HPLC purity” value is 37% and the “final HPLC purity” value was greater than 99%. Further, the isolated yield in data set [1] (setting [10]) stood at 3%. Besides, in data set [1] (scale 0.065 mmol), the crude mass worked out at 20 mg.
In the case of “(R)-Agl-D-Tyr-D-Thr-D-Val-D-Glu-D-Leu-D-Ala-NH2”, in data set [1] (setting [6]), the “crude HPLC purity” value was determined as 55% and the “final HPLC purity” value was greater than 99%. Besides, in data set [1] (setting [7]), the difficulty met entry is recorded as “measurable amounts of products resulting from incomplete lactamization were observed” and the isolated yield is 20%. Further, in data set [1] (on Fmoc loading, formic acid salt (crude: TFA salt), cyclic, sequence written open), the isolated yield is given as 19%.
Regarding His-D-Trp-(S)-Bgl-Trp-D-Phe-Lys-NH2, in data set [1] (setting [6]), the “crude HPLC purity” value is reported as 46% and the “final HPLC purity” value is greater than 99%. The isolated yield in data set [1] (setting [7]) stood at 25%.
For the substance “D-Arg-D-Tyr-(S)-Bgl-D-Val-D-Glu-D-Leu-D-Ala-NH2”, in data set [1] (setting [9]), the “crude HPLC purity” value stood at 60% and the “final HPLC purity” value is on record as greater than 99%. The isolated yield in data set [1] (setting [10]) stood at 17%. Besides, in data set [1] (scale 0.105 mmol), the crude mass was 52 mg.
“(R)-Agl-(R)-Agl-D-Thr-D-Val-D-Glu-D-Leu-D-Ala-NH2”: the “crude HPLC purity” value in data set [2] stood at 45%. Besides, the “final HPLC purity” value in data set [1] (setting [9]) is given as greater than 65%. The difficulty met entry in data set [1] (setting [10]) is recorded as “The addition of a second (R)-Agl residue presented a more difficult challenge than the first”. For the same substance, the isolated yield in data set [1] (setting [11]) was determined as 5%.
For His-D-Trp-Ala-Trp-(R)-Agl-Lys-NH2, the “final HPLC purity” value in data set [1] (setting [8]) was greater than 99%. The “crude HPLC purity” value in data set [1] (analytical RP-HPLC (UV 214), formic acid salt (crude: TFA salt), cyclic, sequence written open) is reported as 55%. The isolated yield in data set [1] (setting [7]) was 7%.
As to “(R)-Agl-D-Tyr-D-Thr-D-Val-(R)-Agl-D-Leu-D-Ala-NH2”, in data set [3], the “crude HPLC purity” value is 30%.
For Bgl-D-Tyr-Iaa-D-Glu-D-Leu-NH2, in data set [1] (setting [12]), the “crude HPLC purity” value came out at 48% and the “final HPLC purity” value is given as greater than 99%. Further, in data set [1] (setting [10]), the isolated yield came out at 13%.
Consider D-Bgl-D-Tyr-Iaa-D-Glu-D-Leu-NH2, for which, in data set [1] (setting [12]), the “crude HPLC purity” value turned out to be 48% and the “final HPLC purity” value is listed as greater than 98%. The isolated yield in data set [1] (setting [10]) was 13%.
The like results for D-Agl-D-Tyr-Iaa-D-Glu-D-Leu-NH2 were, in that order, 44%, greater than 96% and 6%.
With “D-Arg-D-Tyr-(S)-Agl-D-Val-D-Glu-D-Leu-D-Ala-NH2”, the “crude HPLC purity” value in data set [4] stood at 33%; in data set [5] it was 32%; in data set [1] (setting [9]), 32%. The “final HPLC purity” value in data set [1] (setting [9]) is greater than 99%. Also, the isolated yield in data set [1] (setting [11]) is 15%.
Consider “D-Arg-D-Tyr-(R)-Bgl-D-Val-D-Glu-D-Leu-D-Ala-NH2”, for which, in data set [1] (setting [8]), the “final HPLC purity” value is greater than 99%. The “crude HPLC purity” value came to 86% in data set [1] (214 nm, formic acid salt (crude: TFA salt), cyclic, sequence written open, run 1) and 27% in data set [1] (214 nm, formic acid salt (crude: TFA salt), cyclic, sequence written open, run 2). The isolated yield in data set [1] (on Fmoc loading of Rink resin, formic acid salt (crude: TFA salt), cyclic, sequence written open) amounted to 3%; in data set [1] (scale 0.082 mmol, formic acid salt (crude: TFA salt), cyclic, sequence written open) it was 23%. The crude mass in data set [1] (scale 0.082 mmol, cyclic, sequence written open) is given as 34 mg.
Regarding “D-Arg-(S)-Bgl-D-Tyr-D-Thr-D-Val-D-Glu-D-Leu-D-Ala-NH2”, in data set [1] (setting [9]), the “crude HPLC purity” value is given as 56% and the “final HPLC purity” value is listed as greater than 99%. Further, the isolated yield in data set [1] (setting [10]) is recorded as 18%. For the same substance, the crude mass in data set [1] (scale 0.048 mmol) is 27 mg.
